For this assay, the target named is HA-tagged SIN3 (Drosophila melanogaster). Briefly: affinity purification with mass spectrometry; HA-tagged SIN3 immunoprecipitated from Drosophila S2 cells treated with PBS or 2-DG; interactors by TMT multiplexing with LC-MS/MS (RTS, SPS); enrichment against a no tag control; five biological replicates.

No constants are given. Whether binding was seen depends on the method and setting. In cells and extracts the contact can be indirect. A yes stands for co-enrichment or nearness to the bait. Other partners may have been found.

B1: MRG15 (protein, UniProt Q9Y0I1 1-424)
chain: MGEVKPAKVENYSTGTDANTLFVDGERVLCFHGPLIYEAKVLKTKPDATPVEYYIHYAGWSKNWDEWVPENRVLKYNDDNVKRRQELARQCGERSKKDNKKGSAKAKKMEQMRNESRASTPSKDSNTSQSTASSTPTTSAGPGSKSEAGSTGTTTTNSTANSTTSRAHRKSTQSTPSTARPGTPSDKKEDPAAAETTEEEGPVAPKKKRMSEQRPSLTGSDVAEKPLPPTTTPSTPTTEPAPCVESEEAYAAKVEVKIKIPDELKHYLTDDWYAVVREHKLLELPAKVTVQQISEQYLAHKKSVKSTSASKEVAINDVLDGIVEYFNVMLGSQLLYKFERTQYADVMQKHPDTPLSELYGSFHLLRLFVRLGSMLSYSALDQQSMQNLLTHVQDFLKFLVKNSSIFFSMSNFINVDPEYVRNAQ
On to B1, for which the binding result is “binds”.

B2: Negative elongation factor A (NELF-A) (protein, UniProt Q86NP2 1-1251)
chain: MANVRDSDTSLWLHNKLGTSNDSWINGSICSQLNKEVLRNIKECFPDLQTQVKLKLLLSFLHIPRRLVEEWKAELEEVIEVAGLDSELWVSMLAETMKTFPATSSLNTEISDYEDTRPIFIDMVNDLRKLVTKHSDLGMLPLECQYLNKNALISVVGQQPAPVKHFTLKRKPKSAQLRTELLHKSADAQSSLKKASAPTIPLRSRGMPRKMTDTTPLKGIPSRMPTTGFRSATVPGNAAQRPNLSRTPAGRKDGGIKLIEFTEQPLGYAAAKKRKREQQLEEQQKKQEQKQQQAAAAAAAAATAAASNAGDSSPTDAATASGGETPVTPTSANNSFEIKMEPQQLNQSAGSLEEPQDDEMSGKANMECDIETPEYATATLDFAQATSTSVADGQPGKPAVETKLKTPRTPKSAAKLNNNNNNNNNNSFNHTPKRIKQEIEIKSEEIIVPASIKLEKIETSPSTQRVSIQQQPPSLVQRTPHLLIRSSPQKRQNNGATTSAGTTTTTVGNTTIKMEKLDIKPMIRATGVSPSTSAGTTTTLLTPQQLRQAANPLANLPNNISVKITSAKAKAAAAAAATSSGSQTQSQQPQTLQVQQAPQQSHPPLLINSSTPVILASSPSAQRAKALALPSSSTSATTTTTIPSQAIKTMPLSQLKTATNSGPVIISQTIIQPAKRAQQQAGTSSAAAASQQQQQQQSQQQLLHQQIQQQTQQQAQLPQQPQQQQTQYILATPQQQPQQIQQQQQQQQPILPTLTSFSHSRPMPQTTTLYQATTPSGSGQTPTKILLKTSGSSSVVMTPLRQAQPQQATAVVSSNPPPLVATSAAVVSPGQTTLNIQNVQLPNRPVTIQPASQAAQQQHMQAQLQQQQPHPQHTIVANTTATQQPKLSQVLMQPTAAVGTSGVSALNVSPTSGKNKTIILTQKGVILRNIGGDMYQQIPISNVGNMQGLGGTTLMTTTAGPPSLVKTTPSSGVQLQQQQSGKQILPTLIPTSSLGGQHVIVQQQQPTNVIGNSQQQTIIRPVMTNVGGGLTTLPQGLTLIQRPGQQPQLVQVQAAPGSTQRTIITQSNTAAAASQQQPRQQQQQILVQHKPAPTLQQRLVTSTTSGGQGQQGNPNAGLPRTVQVQVQAQQQQQPQQQQATQQQSQQAPQRRGLSLSNEHVHKAHEMFRKANRVSRPDKALILGFMAGLRENPRPNNENVLVIKLGETEEKVQQDNGHTALCLVESHIRLDYNTGEWKTFQNYRLQDQSAAS
As to B2, the binding entry is “binds”.

Source of the values: publication PMC11761031.
